Results deposited as PubChem BioAssay AID1904 (GNF, 2009).
Only reagents picked out of a larger screen are listed. 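Lists only primary-screen hits; phenotype classes come from fitted traces, and the underlying luminescence values are not given.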 Entries without a mark were called inactive.

- Screen: 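Gene silencing that lengthens or shortens period, or boosts amplitude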 (follow-up of hits)
- System: human U2OS osteosarcoma cells stably expressing a destabilised luciferase driven by the Bmal1 promoter
- Reagents: siRNA pair against human genes, 12.5 nM (two siRNAs, 0.5 pmol each, per well)
- Duration: about 3 days after transfection, then luminescence recorded for about 4 days
- Measured: 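Bmal1 reporter light output measured every 2 hours over several days, detrended, then fitted to give period and amplitude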
- Hit rule: 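Scored active if separate single siRNAs repeated the clock phenotype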
- Meaning of the calls: active = confirmed by single siRNAs; inactive = not confirmed

The first 4 records, to show the layout:
Gene | PubChem SID | clock phenotype class | confirmed with single siRNAs
SLICK | SID85104685 | longer clock period; seen with two independent siRNA pairs for the gene (active) | phenotype reproduced by individual siRNAs
SLICK | SID85111908 | longer clock period; seen with two independent siRNA pairs for the gene (active) | phenotype reproduced by individual siRNAs
TDE2 | SID85117975 | longer clock period; seen with two independent siRNA pairs for the gene (active) | phenotype reproduced by individual siRNAs
TDE2 | SID85128799 | longer clock period; seen with two independent siRNA pairs for the gene (active) | phenotype reproduced by individual siRNAs

The list itself, from the first entry:
Gene | PubChem SID | clock phenotype class | confirmed with single siRNAs
SLICK | SID85104685 | longer clock period; seen with two independent siRNA pairs for the gene (active) | phenotype reproduced by individual siRNAs
SLICK | SID85111908 | longer clock period; seen with two independent siRNA pairs for the gene (active) | phenotype reproduced by individual siRNAs
TDE2 | SID85117975 | longer clock period; seen with two independent siRNA pairs for the gene (active) | phenotype reproduced by individual siRNAs
TDE2 | SID85128799 | longer clock period; seen with two independent siRNA pairs for the gene (active) | phenotype reproduced by individual siRNAs
STX4A | SID85101417 | higher rhythm amplitude; seen with one siRNA pair in duplicate wells (inconclusive) | phenotype not reproduced by individual siRNAs
STX4A | SID85108640 | higher rhythm amplitude; seen with one siRNA pair in duplicate wells (inconclusive) | phenotype not reproduced by individual siRNAs
MKL1 | SID85117886 | longer clock period; seen with two independent siRNA pairs for the gene (active) | phenotype reproduced by individual siRNAs
MKL1 | SID85128710 | longer clock period; seen with two independent siRNA pairs for the gene (active) | phenotype reproduced by individual siRNAs
NFE2 | SID85113937 | longer clock period; seen with two independent siRNA pairs for the gene (active) | phenotype reproduced by individual siRNAs
NFE2 | SID85124761 | longer clock period; seen with two independent siRNA pairs for the gene (active) | phenotype reproduced by individual siRNAs
OPN1LW | SID85104863 | longer clock period; seen with two independent siRNA pairs for the gene (active) | phenotype reproduced by individual siRNAs
OPN1LW | SID85112086 | longer clock period; seen with two independent siRNA pairs for the gene (active) | phenotype reproduced by individual siRNAs
TPO | SID85101477 | longer clock period; seen with two independent siRNA pairs for the gene (active) | phenotype reproduced by individual siRNAs
TPO | SID85108700 | longer clock period; seen with two independent siRNA pairs for the gene (active) | phenotype reproduced by individual siRNAs
SLAMF7 | SID85103402 | shorter clock period; seen with one siRNA pair in duplicate wells (inconclusive) | phenotype not reproduced by individual siRNAs
SLAMF7 | SID85110625 | shorter clock period; seen with one siRNA pair in duplicate wells (inconclusive) | phenotype not reproduced by individual siRNAs
KIAA1414 | SID85116836 | shorter clock period; seen with two independent siRNA pairs for the gene (active) | phenotype reproduced by individual siRNAs
KIAA1414 | SID85127660 | shorter clock period; seen with two independent siRNA pairs for the gene (active) | phenotype reproduced by individual siRNAs
DKFZp434O0527 | SID85121156 | higher rhythm amplitude; seen with two independent siRNA pairs for the gene (active) | phenotype reproduced by individual siRNAs
DKFZp434O0527 | SID85131980 | higher rhythm amplitude; seen with two independent siRNA pairs for the gene (active) | phenotype reproduced by individual siRNAs
DHFR | SID85099571 | shorter clock period; seen with one siRNA pair in duplicate wells (active) | phenotype reproduced by individual siRNAs
DHFR | SID85106794 | shorter clock period; seen with one siRNA pair in duplicate wells (active) | phenotype reproduced by individual siRNAs
MMP3 | SID85100208 | shorter clock period; seen with two independent siRNA pairs for the gene (active) | phenotype reproduced by individual siRNAs
MMP3 | SID85107431 | shorter clock period; seen with two independent siRNA pairs for the gene (active) | phenotype reproduced by individual siRNAs
KIAA0020 | SID85115228 | shorter clock period; seen with one siRNA pair in duplicate wells (inconclusive) | phenotype not reproduced by individual siRNAs
KIAA0020 | SID85126052 | shorter clock period; seen with one siRNA pair in duplicate wells (inconclusive) | phenotype not reproduced by individual siRNAs
ANTXR1 | SID85103654 | longer clock period; seen with two independent siRNA pairs for the gene (active) | phenotype reproduced by individual siRNAs
ANTXR1 | SID85110877 | longer clock period; seen with two independent siRNA pairs for the gene (active) | phenotype reproduced by individual siRNAs
BTN2A2 | SID85102355 | longer clock period; seen with two independent siRNA pairs for the gene (active) | phenotype reproduced by individual siRNAs
BTN2A2 | SID85109578 | longer clock period; seen with two independent siRNA pairs for the gene (active) | phenotype reproduced by individual siRNAs
PSMD13 | SID85123019 | longer clock period; seen with two independent siRNA pairs for the gene (active) | phenotype reproduced by individual siRNAs
LSM7 | SID85117033 | longer clock period; seen with two independent siRNA pairs for the gene (active) | phenotype reproduced by individual siRNAs
LSM7 | SID85127857 | longer clock period; seen with two independent siRNA pairs for the gene (active) | phenotype reproduced by individual siRNAs
UBE1C | SID85122788 | longer clock period; seen with two independent siRNA pairs for the gene (active) | phenotype reproduced by individual siRNAs
